Measurements as given in US20040209841A1, “Association compound of trehalose or maltitol with metal ion compound” (priority 2001, published 2004).

Tests used:
[1] = Suppressing effect on the formation of scum during the cooking of boiled foods (Experiment 10); details: for Calcium in scum / Magnesium in scum / Potassium in scum / Sodium in scum: 10% (w/w) saccharide; for Weight of scum: 30 g pork, 400 ml 10% (w/w) saccharide, boiled five minutes; for Calcium in scum (%) / Magnesium in scum (%) / Potassium in scum (%) / Sodium in scum (%) / Weight of scum (%): no saccharide = 100
[2] = Elution of minerals from boiled foods during the cooking (Experiment 11)
[3] = Suppressing effect on the formation of scum from boiling foods (Experiment 9); details: saccharide 2% (w/w)
[4] = Scum formation and elution of minerals from boiled vegetables (Experiment 12), garland chrysanthemum
[5] = Scum formation and elution of minerals from boiled vegetables (Experiment 12), spinach
[6] = filtrate after removing scum, pork, 10% (w/w) saccharide
[7] = garland chrysanthemum, no saccharide = 100
[8] = garland chrysanthemum, scum + filtrate

OC[C@H]1O[C@H](O[C@H]2[C@H](O)[C@@H](O)C(O)O[C@@H]2CO)[C@H](O)[C@@H](O)[C@@H]1O (mixture of isomers) [Maltose, maltose]
Calcium in scum [1]: 0.092 mg | Magnesium in scum [1]: 0.050 mg | Potassium in scum [1]: 0.025 mg | Sodium in scum [1]: 0.283 mg | Weight of scum [1]: 2.126 g | Calcium in scum (%) [1]: 79% | Magnesium in scum (%) [1]: 89% | Potassium in scum (%) [1]: 109% | Sodium in scum (%) [1]: 115% | Weight of scum (%) [1]: 94%

OC[C@@H](O)[C@@H](O[C@H]1O[C@H](CO)[C@@H](O)[C@H](O)[C@H]1O)[C@H](O)[C@@H](O)CO [Maltitol, maltitol]
Calcium in scum [1]: 0.030 mg | Magnesium in scum [1]: 0.029 mg | Potassium in scum [1]: 0.015 mg | Sodium in scum [1]: 0.183 mg | Weight of scum [1]: 0.802 g | Calcium in scum (%) [1]: 26% | Magnesium in scum (%) [1]: 52% | Potassium in scum (%) [1]: 65% | Sodium in scum (%) [1]: 74% | Weight of scum (%) [1]: 36%

OC[C@H]1O[C@@H](O[C@H]2O[C@H](CO)[C@@H](O)[C@H](O)[C@H]2O)[C@H](O)[C@@H](O)[C@@H]1O [Neotrehalose, neotrehalose]
Calcium in scum [1]: 0.090 mg | Magnesium in scum [1]: 0.042 mg | Potassium in scum [1]: 0.024 mg | Sodium in scum [1]: 0.237 mg | Weight of scum [1]: 1.942 g | Calcium in scum (%) [1]: 77% | Magnesium in scum (%) [1]: 75% | Potassium in scum (%) [1]: 104% | Sodium in scum (%) [1]: 96% | Weight of scum (%) [1]: 86% | Ca in filtrate [2, 6]: 0.957 mg | K in filtrate [2, 6]: 6.060 mg | Mg in filtrate [2, 6]: 1.148 mg | Na in filtrate [2, 6]: 3.880 mg | Ca in filtrate (%) ([2]; no saccharide = 100): 99% | Ca total amount eluted (%) ([2]; no saccharide = 100): 97% | K in filtrate (%) ([2]; no saccharide = 100): 96% | K total amount eluted (%) ([2]; no saccharide = 100): 96% | Mg in filtrate (%) ([2]; no saccharide = 100): 99% | Mg total amount eluted (%) ([2]; no saccharide = 100): 98% | Na in filtrate (%) ([2]; no saccharide = 100): 113% | Na total amount eluted (%) ([2]; no saccharide = 100): 112% | Ca total amount eluted from 30 grams of pork ([2]; sum of scum (Table 14) and filtrate (Table 15)): 1.047 mg | K total amount eluted from 30 grams of pork ([2]; sum of scum and filtrate): 6.084 mg | Mg total amount eluted from 30 grams of pork ([2]; sum of scum and filtrate): 1.190 mg | Na total amount eluted from 30 grams of pork ([2]; sum of scum and filtrate): 4.117 mg

OC[C@H]1O[C@@](CO)(O[C@H]2O[C@H](CO)[C@@H](O)[C@H](O)[C@H]2O)[C@@H](O)[C@@H]1O [Sucrose, sucrose]
Ash in scum [3]: 0.013 g | Ca in scum [3]: 1.672 mg | Fat in scum [3]: 0.871 g | Mg in scum [3]: 2.475 mg | Protein in scum [3]: 0.170 g | Weight of scum ([3]; 30 g pork + 20 g spinach in 400 ml water, boiled one minute): 1.060 g | Weight of scum RW (%) (relative weight) ([3]; no saccharide = 100): 97% | Calcium in scum [1]: 0.113 mg | Magnesium in scum [1]: 0.052 mg | Potassium in scum [1]: 0.025 mg | Sodium in scum [1]: 0.299 mg | Weight of scum [1]: 1.718 g | Calcium in scum (%) [1]: 97% | Magnesium in scum (%) [1]: 93% | Potassium in scum (%) [1]: 109% | Sodium in scum (%) [1]: 121% | Weight of scum (%) [1]: 76% | Calcium in filtrate ([4]; garland chrysanthemum): 12.683 mg | Calcium in scum ([4]; garland chrysanthemum): 0.299 µg | Magnesium in filtrate ([4]; garland chrysanthemum): 1.440 mg | Magnesium in scum ([4]; garland chrysanthemum): 0.059 µg | Potassium in filtrate ([4]; garland chrysanthemum): 0.655 mg | Potassium in scum ([4]; garland chrysanthemum): 0.288 µg | Sodium in filtrate ([4]; garland chrysanthemum): 3.213 mg | Sodium in scum ([4]; garland chrysanthemum): 0.058 µg | Weight of scum ([4]; garland chrysanthemum 20 g, 400 ml 10% (w/w) saccharide, boiled five minutes): 0.010 g | Calcium in filtrate (%) [4, 7]: 97% | Calcium in scum (%) [4, 7]: 73% | Calcium, total amount eluted (%) [4, 7]: 97% | Magnesium in filtrate (%) [4, 7]: 111% | Magnesium in scum (%) [4, 7]: 63% | Magnesium, total amount eluted (%) [4, 7]: 111% | Potassium in filtrate (%) [4, 7]: 93% | Potassium in scum (%) [4, 7]: 76% | Potassium, total amount eluted (%) [4, 7]: 93% | Sodium in filtrate (%) [4, 7]: 99% | Sodium in scum (%) [4, 7]: 29% | Sodium, total amount eluted (%) [4, 7]: 99% | Weight of scum (%) [4, 7]: 71% | Calcium, total amount of minerals eluted [4, 8]: 12.683 mg | Magnesium, total amount of minerals eluted [4, 8]: 1.440 mg | Potassium, total amount of minerals eluted [4, 8]: 0.656 mg | Sodium, total amount of minerals eluted [4, 8]: 3.213 mg | Calcium in filtrate ([5]; spinach): 4.604 mg | Calcium in scum ([5]; spinach): 0.886 µg | Magnesium in filtrate ([5]; spinach): 6.954 mg | Magnesium in scum ([5]; spinach): 0.542 µg | Potassium in filtrate ([5]; spinach): 0.825 mg | Potassium in scum ([5]; spinach): 0.726 µg | Sodium in filtrate ([5]; spinach): 1.918 mg | Sodium in scum ([5]; spinach): 0.461 µg | Weight of scum ([5]; spinach 20 g, 400 ml 10% (w/w) saccharide, boiled five minutes): 0.022 g | Calcium in filtrate (%) ([5]; spinach, no saccharide = 100): 104% | Calcium in scum (%) ([5]; spinach, no saccharide = 100): 78% | Calcium, total amount eluted (%) ([5]; spinach, no saccharide = 100): 104% | Magnesium in filtrate (%) ([5]; spinach, no saccharide = 100): 100% | Magnesium in scum (%) ([5]; spinach, no saccharide = 100): 64% | Magnesium, total amount eluted (%) ([5]; spinach, no saccharide = 100): 100% | Potassium in filtrate (%) ([5]; spinach, no saccharide = 100): 106% | Potassium in scum (%) ([5]; spinach, no saccharide = 100): 60% | Potassium, total amount eluted (%) ([5]; spinach, no saccharide = 100): 106% | Sodium in filtrate (%) ([5]; spinach, no saccharide = 100): 98% | Sodium in scum (%) ([5]; spinach, no saccharide = 100): 56% | Sodium, total amount eluted (%) ([5]; spinach, no saccharide = 100): 98% | Weight of scum (%) ([5]; spinach, no saccharide = 100): 65% | Calcium, total amount of minerals eluted ([5]; spinach, scum + filtrate): 4.605 mg | Magnesium, total amount of minerals eluted ([5]; spinach, scum + filtrate): 6.955 mg | Potassium, total amount of minerals eluted ([5]; spinach, scum + filtrate): 0.825 mg | Sodium, total amount of minerals eluted ([5]; spinach, scum + filtrate): 1.919 mg
